Consider four substances from PMC9481933.

Protein sequences, listed by entry. Tags and fused reporters are not part of them.
UniProt P08238: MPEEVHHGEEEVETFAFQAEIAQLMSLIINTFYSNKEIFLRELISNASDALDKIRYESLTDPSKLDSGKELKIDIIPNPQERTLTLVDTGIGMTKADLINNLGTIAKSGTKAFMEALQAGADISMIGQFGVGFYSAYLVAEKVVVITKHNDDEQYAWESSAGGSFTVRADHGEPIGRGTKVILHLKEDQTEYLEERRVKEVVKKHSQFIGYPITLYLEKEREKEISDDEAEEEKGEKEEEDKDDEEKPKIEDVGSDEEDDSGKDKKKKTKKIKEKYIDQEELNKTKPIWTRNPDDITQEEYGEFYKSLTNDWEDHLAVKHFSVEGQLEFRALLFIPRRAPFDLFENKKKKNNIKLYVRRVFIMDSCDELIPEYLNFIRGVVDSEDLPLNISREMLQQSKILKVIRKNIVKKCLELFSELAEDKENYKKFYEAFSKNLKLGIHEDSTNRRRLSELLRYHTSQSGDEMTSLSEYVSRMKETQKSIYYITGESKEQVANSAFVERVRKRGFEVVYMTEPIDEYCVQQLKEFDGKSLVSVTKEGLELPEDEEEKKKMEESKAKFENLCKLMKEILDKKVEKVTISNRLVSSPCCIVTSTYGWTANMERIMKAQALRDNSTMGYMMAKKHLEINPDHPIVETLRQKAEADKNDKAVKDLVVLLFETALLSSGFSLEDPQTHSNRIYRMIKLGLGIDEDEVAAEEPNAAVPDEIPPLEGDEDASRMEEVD
UniProt P63208: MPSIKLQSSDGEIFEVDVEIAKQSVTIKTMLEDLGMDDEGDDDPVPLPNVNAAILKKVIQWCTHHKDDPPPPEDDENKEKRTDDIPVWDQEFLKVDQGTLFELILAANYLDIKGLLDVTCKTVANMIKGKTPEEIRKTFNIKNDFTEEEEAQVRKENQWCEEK
UniProt Q13263: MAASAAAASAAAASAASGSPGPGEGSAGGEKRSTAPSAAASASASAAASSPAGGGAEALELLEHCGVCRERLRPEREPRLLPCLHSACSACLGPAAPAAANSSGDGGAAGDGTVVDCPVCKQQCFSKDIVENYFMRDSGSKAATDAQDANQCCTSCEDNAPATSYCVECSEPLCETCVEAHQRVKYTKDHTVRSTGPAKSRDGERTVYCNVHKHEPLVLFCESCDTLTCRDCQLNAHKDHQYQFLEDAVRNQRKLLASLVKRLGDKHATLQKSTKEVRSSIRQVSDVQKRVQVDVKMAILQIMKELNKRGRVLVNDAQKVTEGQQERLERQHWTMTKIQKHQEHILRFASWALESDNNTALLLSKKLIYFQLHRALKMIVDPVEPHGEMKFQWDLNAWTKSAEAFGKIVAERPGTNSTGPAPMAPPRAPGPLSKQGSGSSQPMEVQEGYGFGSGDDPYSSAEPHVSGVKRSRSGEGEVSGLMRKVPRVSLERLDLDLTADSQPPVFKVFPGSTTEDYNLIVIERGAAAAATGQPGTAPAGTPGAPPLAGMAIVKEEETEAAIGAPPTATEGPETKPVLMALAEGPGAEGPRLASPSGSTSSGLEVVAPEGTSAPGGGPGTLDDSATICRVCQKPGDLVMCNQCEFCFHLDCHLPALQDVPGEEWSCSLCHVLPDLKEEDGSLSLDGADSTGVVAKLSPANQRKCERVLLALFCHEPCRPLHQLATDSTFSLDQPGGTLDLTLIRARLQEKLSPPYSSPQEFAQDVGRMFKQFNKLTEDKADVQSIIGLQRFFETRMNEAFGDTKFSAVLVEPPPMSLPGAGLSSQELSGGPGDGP

Assay [1] deals with T1, HA-FLAG-tagged Cyclin-F (wild type), in SH-SY5Y cells (UniProt P41002).
T1 sequence: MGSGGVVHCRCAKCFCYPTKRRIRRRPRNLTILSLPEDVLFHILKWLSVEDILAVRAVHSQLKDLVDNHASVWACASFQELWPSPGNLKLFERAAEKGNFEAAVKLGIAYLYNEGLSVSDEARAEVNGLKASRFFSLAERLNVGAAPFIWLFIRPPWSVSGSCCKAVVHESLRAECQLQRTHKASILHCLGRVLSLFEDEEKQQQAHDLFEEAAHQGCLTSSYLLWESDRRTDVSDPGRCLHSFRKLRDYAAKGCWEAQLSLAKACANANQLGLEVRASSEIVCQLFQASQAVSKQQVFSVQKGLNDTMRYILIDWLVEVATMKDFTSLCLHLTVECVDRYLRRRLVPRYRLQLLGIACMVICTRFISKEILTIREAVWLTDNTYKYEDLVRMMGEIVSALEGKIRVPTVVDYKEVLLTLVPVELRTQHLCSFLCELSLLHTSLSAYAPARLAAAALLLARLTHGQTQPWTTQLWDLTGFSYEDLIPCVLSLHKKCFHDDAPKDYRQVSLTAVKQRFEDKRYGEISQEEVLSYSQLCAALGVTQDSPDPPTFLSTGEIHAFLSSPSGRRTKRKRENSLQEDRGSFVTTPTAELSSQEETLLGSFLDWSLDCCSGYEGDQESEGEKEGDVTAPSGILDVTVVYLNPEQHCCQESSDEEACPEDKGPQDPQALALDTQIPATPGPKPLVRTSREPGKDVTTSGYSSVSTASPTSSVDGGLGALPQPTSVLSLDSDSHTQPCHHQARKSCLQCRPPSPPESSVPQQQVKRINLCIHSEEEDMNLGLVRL
The experiment in a line: co-IP; lysates of parental (mock), HA-FLAG-FBXO28 or HA-FLAG-CCNF overexpressing SH-SY5Y cells; HA or Flag immunoprecipitation overnight at 4 C, SDS-PAGE and immunoblotting of endogenous partners. Background: In western blotting, separated proteins are transferred to a membrane and probed.

In assay [2] the target is T1, HA-FLAG-tagged Cyclin-F (wild type), in SH-SY5Y cells. The experiment in a line: co-IP; CCNF KO SH-SY5Y cells re-expressing HA-FLAG-CCNF WT, V335M or D628V or mock; HA-agarose, SDS-PAGE and immunoblotting.
Assay [3] concerns the target T2, HA-FLAG-tagged Cyclin-F V335M (UniProt P41002).
T2 sequence: T1 sequence with V335M
Described as above.

In assay [4] the target is T3, HA-FLAG-tagged Cyclin-F D628V (UniProt P41002).
T3 sequence: T1 sequence with D628V
The description is as above.

Assay [5] concerns the target T4, HA-FLAG-FBXO28 (UniProt Q9NVF7).
T4 sequence: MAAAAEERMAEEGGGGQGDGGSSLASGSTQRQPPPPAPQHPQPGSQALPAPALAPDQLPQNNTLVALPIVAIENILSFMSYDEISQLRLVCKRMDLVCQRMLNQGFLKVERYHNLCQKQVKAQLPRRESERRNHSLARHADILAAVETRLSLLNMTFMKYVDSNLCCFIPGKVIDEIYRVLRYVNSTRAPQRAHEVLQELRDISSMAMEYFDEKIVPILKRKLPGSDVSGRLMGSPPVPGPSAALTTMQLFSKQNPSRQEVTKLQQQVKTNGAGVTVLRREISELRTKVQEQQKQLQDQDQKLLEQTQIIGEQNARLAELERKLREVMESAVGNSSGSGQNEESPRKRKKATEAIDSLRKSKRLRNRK
As to the kind of experiment: co-IP; lysates of parental (mock), HA-FLAG-FBXO28 or HA-FLAG-CCNF overexpressing SH-SY5Y cells; HA or Flag immunoprecipitation overnight at 4 C, SDS-PAGE and immunoblotting of endogenous partners.

Residue numbers refer to the chain shown, from its start. Results are given in words; binding and its absence hold for the method and conditions named. Binding seen in cells or lysates may run through a third protein. Some results given as binding are weak or reduced against the parent protein; the word gives no strength. Tags and fused reporters may be left off the sequences shown.

With “HSP90AB1 (endogenous) (from UniProt P08238 1-724)”, the binding entry in assay [1], in assay [2], in assay [3] and in assay [4] was “binds” in each case.
As to “SKP1 (endogenous) (from UniProt P63208 1-163)”, the binding entry in assay [1] and in assay [5] was “binds” throughout.
In the case of “STIP1 (endogenous) (from UniProt P31948 1-543)”, the binding entry in assay [1] is reported as “binds”.
As for “TRIM28 (endogenous) (from UniProt Q13263 1-835)”, the binding entry in assay [1] is on record as “binds”.
